Assay results: patent US8486693B2, “Modified dendritic cells having enhanced survival and immunogenicity and related compositions and methods” (Bellicum Pharmaceuticals, Inc., priority 2006, dated 2013)
At least one compound was matched to its structure with a doubt left.

Assays:
[1] = system: NF-.kappa.B; test: NF-.kappa.B/SEAP reporter assay in Jurkat-TAg cells (Example 10, iAkt); type: cell-based, human; settings: LY294002 5 μM, wortmannin 1 μM, R0318220 1 μM
Experimental: Jurkat-TAg cells in logarithmic-phase growth were electroporated ([…], 250 V; Gene Pulser II (BIO-RAD)) with expression plasmids and the NF-.kappa.B-SEAP reporter plasmid. After 24 hours, transfected cells were stimulated with sub-optimal levels of the phorbol ester PMA (5 ng/ml) along with log dilutions of the heterodimerizing CID, AP22783, and additional treatments. After an additional 24 hours, supernatants were assayed for SEAP activity.
Two key requirements for efficient synthetic regulation of a biological event are highly specific conditional dependency and low background. […] Therefore, in order to optimize iAkt, an NF-.kappa.B-responsive secreted alkaline phosphatase (SEAP) reporter plasmid was used as an assay for Akt activation.
Briefly, the human T cell line, Jurkat-TAg, was cotransfected with reporter plasmid, NF-.kappa.B/SEAP, along with constitutively active M-Akt expression vector or empty control vector. Twenty-four hours after transfection, cells were divided into aliquots that were stimulated with sub-optimal levels (5 ng/ml) of the phorbol ester, PMA, or were untreated. After an additional 24 hours, SEAP activity was measured. Although Akt activity alone was insufficient to induce measurable NF-.kappa.B activity, M-Akt expression potentiated (by 3-4 fold) PKC-induced NF-.kappa.B activity, consistent with multiple reports. […]

[2] = system: Bcl-xL; test: Western blotting of Bcl-xL protein level in BMDCs; type: cell-based, mouse; settings: wortmannin with LPS or anti-CD40
[3] = system: bone marrow-derived DCs (BMDCs); test: In vitro mouse DC survival assay (PI / Annexin V staining); type: cell-based; settings: low wortmannin concentrations (0.05-0.5 μM)
[4] = system: Bcl-2; test: Western blotting of Bcl-2 protein level in BMDCs; type: cell-based, mouse; settings: wortmannin with LPS or anti-CD40

Compound | NF-.kappa.B activation by M-Akt plus PKC in presence of inhibitor [1] | Bcl-xL protein level [2] | DC viability of LPS- or anti-CD40-treated DCs [3] | Bcl-2 protein level [4]
O=c1cc(N2CCOCC2)oc2c(-c3ccccc3)cccc12 [LY294002] | did not prevent NF-.kappa.B activation by M-Akt plus PKC | – | – | –
COC[C@H]1OC(=O)c2coc3c2[C@@]1(C)C1=C(C3=O)[C@@H]2CCC(=O)[C@@]2(C)C[C@H]1OC(C)=O [wortmannin] | did not prevent NF-.kappa.B activation by M-Akt plus PKC | stable for at least 3 days | led to death of both LPS- and anti-CD40-treated DCs | rapidly down regulated
